{"source": "PubChem BioAssay AID1224830 (NIAID, 2016)", "screen": "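Genes whose knock-down alters the TNF-alpha reporter response to LPS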 (primary screen)", "system": "human THP-1 monocytic leukaemia cells, TNF dual-luciferase reporter clone, PMA-differentiated to macrophage-like cells", "reagent": "siRNA pool against human genes, 50 nM", "timing": "LPS for 4 h, given about 3 days after siRNA transfection", "treatment": "bacterial LPS (TLR4 ligand), 10 ng/ml", "read-out": "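TNF firefly reporter luminescence divided by renilla, normalised to the plate median, then turned into a robust z-score for each replicate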", "scale": "TNF reporter robust z-score: higher = stronger TNF reporter response to LPS", "active means": "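a well is active when its z-score exceeds 2.8 or falls below -1.5; control wells carry no call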", "note": "The whole screen tested about 18,000 reagents; below is a random part of them. In the full data, about 2,900 (16%) are marked active. 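Calls are made per well; low scores hint the gene aids the LPS response, high scores that it dampens it.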 Repeated entries: four replicate wells of each siRNA pool."}
{"gene symbol": "CYP4V2 (cytochrome P450 family 4 subfamily V member 2)", "PubChem SID": "SID315463850", "TNF reporter robust z-score": -0.06, "outcome": "inactive"}
{"gene symbol": "CYP4V2 (cytochrome P450 family 4 subfamily V member 2)", "PubChem SID": "SID315463850", "TNF reporter robust z-score": 0.08, "outcome": "inactive"}
{"gene symbol": "CYP4V2 (cytochrome P450 family 4 subfamily V member 2)", "PubChem SID": "SID315463850", "TNF reporter robust z-score": -0.03, "outcome": "inactive"}
{"gene symbol": "CYP4V2 (cytochrome P450 family 4 subfamily V member 2)", "PubChem SID": "SID315463850", "TNF reporter robust z-score": 0.51, "outcome": "inactive"}
{"gene symbol": "OR10S1 (olfactory receptor family 10 subfamily S member 1)", "PubChem SID": "SID315463205", "TNF reporter robust z-score": 1.85, "outcome": "inactive"}
{"gene symbol": "OR10S1 (olfactory receptor family 10 subfamily S member 1)", "PubChem SID": "SID315463205", "TNF reporter robust z-score": 1.37, "outcome": "inactive"}
{"gene symbol": "OR10S1 (olfactory receptor family 10 subfamily S member 1)", "PubChem SID": "SID315463205", "TNF reporter robust z-score": 0.26, "outcome": "inactive"}
{"gene symbol": "OR10S1 (olfactory receptor family 10 subfamily S member 1)", "PubChem SID": "SID315463205", "TNF reporter robust z-score": 1.5, "outcome": "inactive"}
{"gene symbol": "ABCA2 (ATP binding cassette subfamily A member 2)", "PubChem SID": "SID315447127", "TNF reporter robust z-score": -0.49, "outcome": "inactive"}
{"gene symbol": "ABCA2 (ATP binding cassette subfamily A member 2)", "PubChem SID": "SID315447127", "TNF reporter robust z-score": -0.3, "outcome": "inactive"}
{"gene symbol": "ABCA2 (ATP binding cassette subfamily A member 2)", "PubChem SID": "SID315447127", "TNF reporter robust z-score": -0.91, "outcome": "inactive"}
{"gene symbol": "ABCA2 (ATP binding cassette subfamily A member 2)", "PubChem SID": "SID315447127", "TNF reporter robust z-score": -0.76, "outcome": "inactive"}
{"gene symbol": "CHML (CHM like Rab escort protein)", "PubChem SID": "SID315447915", "TNF reporter robust z-score": 0, "outcome": "inactive"}
{"gene symbol": "CHML (CHM like Rab escort protein)", "PubChem SID": "SID315447915", "TNF reporter robust z-score": -1.96, "outcome": "active"}
{"gene symbol": "CHML (CHM like Rab escort protein)", "PubChem SID": "SID315447915", "TNF reporter robust z-score": -0.63, "outcome": "inactive"}
{"gene symbol": "CHML (CHM like Rab escort protein)", "PubChem SID": "SID315447915", "TNF reporter robust z-score": -0.66, "outcome": "inactive"}
{"gene symbol": "CRTC3 (CREB regulated transcription coactivator 3)", "PubChem SID": "SID315458994", "TNF reporter robust z-score": 3.23, "outcome": "active"}
{"gene symbol": "CRTC3 (CREB regulated transcription coactivator 3)", "PubChem SID": "SID315458994", "TNF reporter robust z-score": 4.95, "outcome": "active"}
{"gene symbol": "CRTC3 (CREB regulated transcription coactivator 3)", "PubChem SID": "SID315458994", "TNF reporter robust z-score": 0.57, "outcome": "inactive"}
{"gene symbol": "CRTC3 (CREB regulated transcription coactivator 3)", "PubChem SID": "SID315458994", "TNF reporter robust z-score": 0.77, "outcome": "inactive"}
{"gene symbol": "ADGRB3 (adhesion G protein-coupled receptor B3)", "PubChem SID": "SID315447510", "TNF reporter robust z-score": -1.52, "outcome": "active"}
{"gene symbol": "ADGRB3 (adhesion G protein-coupled receptor B3)", "PubChem SID": "SID315447510", "TNF reporter robust z-score": -1.37, "outcome": "inactive"}
{"gene symbol": "ADGRB3 (adhesion G protein-coupled receptor B3)", "PubChem SID": "SID315447510", "TNF reporter robust z-score": -1.38, "outcome": "inactive"}
{"gene symbol": "ADGRB3 (adhesion G protein-coupled receptor B3)", "PubChem SID": "SID315447510", "TNF reporter robust z-score": -1.3, "outcome": "inactive"}
{"gene symbol": "ZKSCAN1 (zinc finger with KRAB and SCAN domains 1)", "PubChem SID": "SID315452215", "TNF reporter robust z-score": 1.65, "outcome": "inactive"}
{"gene symbol": "ZKSCAN1 (zinc finger with KRAB and SCAN domains 1)", "PubChem SID": "SID315452215", "TNF reporter robust z-score": 1.21, "outcome": "inactive"}
{"gene symbol": "ZKSCAN1 (zinc finger with KRAB and SCAN domains 1)", "PubChem SID": "SID315452215", "TNF reporter robust z-score": 1.6, "outcome": "inactive"}
{"gene symbol": "NPPB (natriuretic peptide B)", "PubChem SID": "SID315450295", "TNF reporter robust z-score": 1.29, "outcome": "inactive"}
{"gene symbol": "NPPB (natriuretic peptide B)", "PubChem SID": "SID315450295", "TNF reporter robust z-score": 1.39, "outcome": "inactive"}
{"gene symbol": "NPPB (natriuretic peptide B)", "PubChem SID": "SID315450295", "TNF reporter robust z-score": 1.19, "outcome": "inactive"}
{"gene symbol": "NPPB (natriuretic peptide B)", "PubChem SID": "SID315450295", "TNF reporter robust z-score": 2.98, "outcome": "active"}
{"gene symbol": "DGAT2 (diacylglycerol O-acyltransferase 2)", "PubChem SID": "SID315460438", "TNF reporter robust z-score": -0.6, "outcome": "inactive"}
{"gene symbol": "DGAT2 (diacylglycerol O-acyltransferase 2)", "PubChem SID": "SID315460438", "TNF reporter robust z-score": -0.97, "outcome": "inactive"}
{"gene symbol": "DGAT2 (diacylglycerol O-acyltransferase 2)", "PubChem SID": "SID315460438", "TNF reporter robust z-score": -0.52, "outcome": "inactive"}
{"gene symbol": "DGAT2 (diacylglycerol O-acyltransferase 2)", "PubChem SID": "SID315460438", "TNF reporter robust z-score": -0.93, "outcome": "inactive"}
{"gene symbol": "ZNF326 (zinc finger protein 326)", "PubChem SID": "SID315463804", "TNF reporter robust z-score": 0.14, "outcome": "inactive"}
{"gene symbol": "ZNF326 (zinc finger protein 326)", "PubChem SID": "SID315463804", "TNF reporter robust z-score": -0.57, "outcome": "inactive"}
{"gene symbol": "ZNF326 (zinc finger protein 326)", "PubChem SID": "SID315463804", "TNF reporter robust z-score": -0.02, "outcome": "inactive"}
{"gene symbol": "ZNF326 (zinc finger protein 326)", "PubChem SID": "SID315463804", "TNF reporter robust z-score": -0.26, "outcome": "inactive"}
{"gene symbol": "MID1 (midline 1)", "PubChem SID": "SID315449974", "TNF reporter robust z-score": -0.19, "outcome": "inactive"}
{"gene symbol": "MID1 (midline 1)", "PubChem SID": "SID315449974", "TNF reporter robust z-score": 1.84, "outcome": "inactive"}
{"gene symbol": "MID1 (midline 1)", "PubChem SID": "SID315449974", "TNF reporter robust z-score": 0.6, "outcome": "inactive"}
{"gene symbol": "MID1 (midline 1)", "PubChem SID": "SID315449974", "TNF reporter robust z-score": 1.88, "outcome": "inactive"}
{"gene symbol": "HMOX2 (heme oxygenase 2)", "PubChem SID": "SID315449238", "TNF reporter robust z-score": -0.23, "outcome": "inactive"}
{"gene symbol": "HMOX2 (heme oxygenase 2)", "PubChem SID": "SID315449238", "TNF reporter robust z-score": 0.91, "outcome": "inactive"}
{"gene symbol": "HMOX2 (heme oxygenase 2)", "PubChem SID": "SID315449238", "TNF reporter robust z-score": 1, "outcome": "inactive"}
{"gene symbol": "HMOX2 (heme oxygenase 2)", "PubChem SID": "SID315449238", "TNF reporter robust z-score": 0.81, "outcome": "inactive"}
